In the experiment the target is EHMT1, endogenous in 293 cells (human (endogenous in HEK293)) (UniProt Q9H9B1). Nature of the experiment: affinity purification with mass spectrometry; immunoprecipitation of endogenous EHMT1, excision of unique bands, LC/MS.

Amino acid sequences for entries named in this document (tags omitted).
UniProt Q9H9B1: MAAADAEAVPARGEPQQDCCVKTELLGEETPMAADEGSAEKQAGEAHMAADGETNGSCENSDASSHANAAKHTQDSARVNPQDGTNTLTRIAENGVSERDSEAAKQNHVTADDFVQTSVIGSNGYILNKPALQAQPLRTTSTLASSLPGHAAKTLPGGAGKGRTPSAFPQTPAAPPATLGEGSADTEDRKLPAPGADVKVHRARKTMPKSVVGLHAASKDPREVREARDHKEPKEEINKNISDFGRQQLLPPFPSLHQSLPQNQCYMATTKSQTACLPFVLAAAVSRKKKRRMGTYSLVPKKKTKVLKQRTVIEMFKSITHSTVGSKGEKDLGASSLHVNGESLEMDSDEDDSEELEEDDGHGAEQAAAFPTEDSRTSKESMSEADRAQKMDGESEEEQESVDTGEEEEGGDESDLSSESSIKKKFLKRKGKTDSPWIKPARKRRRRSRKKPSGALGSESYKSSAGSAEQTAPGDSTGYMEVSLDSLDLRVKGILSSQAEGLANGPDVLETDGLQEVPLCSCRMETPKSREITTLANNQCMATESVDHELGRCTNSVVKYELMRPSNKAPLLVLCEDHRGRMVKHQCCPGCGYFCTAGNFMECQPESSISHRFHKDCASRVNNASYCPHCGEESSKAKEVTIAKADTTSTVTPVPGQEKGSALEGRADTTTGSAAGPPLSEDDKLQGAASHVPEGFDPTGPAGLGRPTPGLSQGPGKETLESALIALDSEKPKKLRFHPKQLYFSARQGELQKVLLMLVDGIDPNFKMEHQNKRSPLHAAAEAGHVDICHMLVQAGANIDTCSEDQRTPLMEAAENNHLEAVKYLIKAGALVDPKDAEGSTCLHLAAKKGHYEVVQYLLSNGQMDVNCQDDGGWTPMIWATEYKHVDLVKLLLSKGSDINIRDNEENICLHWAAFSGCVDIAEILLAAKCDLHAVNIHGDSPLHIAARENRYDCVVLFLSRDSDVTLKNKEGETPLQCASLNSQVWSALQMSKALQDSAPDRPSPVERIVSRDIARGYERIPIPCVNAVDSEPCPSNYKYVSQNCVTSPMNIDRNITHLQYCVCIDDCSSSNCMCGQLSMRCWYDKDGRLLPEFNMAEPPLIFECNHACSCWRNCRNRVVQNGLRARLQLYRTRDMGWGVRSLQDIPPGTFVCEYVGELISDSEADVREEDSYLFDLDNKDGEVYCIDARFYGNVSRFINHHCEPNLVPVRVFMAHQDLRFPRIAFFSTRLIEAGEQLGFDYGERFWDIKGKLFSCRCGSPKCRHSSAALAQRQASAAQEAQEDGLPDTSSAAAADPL
UniProt P20700: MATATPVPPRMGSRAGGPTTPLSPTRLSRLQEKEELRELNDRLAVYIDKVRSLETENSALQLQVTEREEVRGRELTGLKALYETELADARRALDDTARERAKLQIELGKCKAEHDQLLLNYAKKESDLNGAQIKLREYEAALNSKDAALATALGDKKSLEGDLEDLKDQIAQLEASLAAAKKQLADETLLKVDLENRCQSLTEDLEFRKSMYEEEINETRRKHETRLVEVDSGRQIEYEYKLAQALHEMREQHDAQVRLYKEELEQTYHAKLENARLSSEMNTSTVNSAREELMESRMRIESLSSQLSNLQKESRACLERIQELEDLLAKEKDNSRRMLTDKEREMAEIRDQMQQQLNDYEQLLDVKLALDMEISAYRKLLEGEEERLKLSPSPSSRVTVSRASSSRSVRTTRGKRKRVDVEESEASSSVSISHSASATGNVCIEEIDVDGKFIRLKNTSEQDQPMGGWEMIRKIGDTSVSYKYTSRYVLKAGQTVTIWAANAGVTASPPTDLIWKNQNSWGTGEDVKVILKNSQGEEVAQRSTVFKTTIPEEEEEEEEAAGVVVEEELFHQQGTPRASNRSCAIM

No constants are given. Whether binding was seen depends on the method and setting. Binding seen in cells or lysates may run through a third protein. A yes stands for co-enrichment or nearness to the bait. Other partners may have been found.

In paper PMC11707394 one finds binding data, which are given here for 1 substance.

Turning to LMNB1 (from UniProt P20700 1-586), the binding result is given as “binds”.
